We go through seven compounds from US5595999A, “Guanidine derivatives” (Hoffmann-La Roche Inc., priority 1990, dated 1997).

The data set has as its system trypsin. The data set is described as follows: Inhibition of amidolytic activity of trypsin (chromogenic substrate S-2251). The following applies: Ki trypsin / Ki thrombin; specificity. The class given is biochemical. As to the method: A differential inhibition of thrombin and other serine proteases by the above compounds is desirable in order to obtain compounds having as high a specificity as possible and at the same time to avoid possible side-effects.
Specific chromogenic peptide substrates can be used to determine the inhibition of the catalytic activity of the above proteases. The inhibition of the amidolytic activity of thrombin and trypsin by the above guanidines was determined as described hereinafter.
The measurements were carried out on microtiter plates at room temperature. For this, in each well of the plate 150 μl of buffer (50 mM Tris, 100 mM NaCl, 0.1% polyethylene glycol; pH 7.8) were mixed with 50 μl of the inhibitor dissolved in DMSO and diluted in the buffer, and 25 μl of human thrombin (0.5 nM final conc.) were added. After incubation for 10 minutes, the reaction was started by the addition of chromogenic substrate S-2238 (H-D-Phe-Pip-Arg-paranitroaniline from Kabivitrum; 10 or 50 μm final conc.) and the hydrolysis of the substrate was followed spectrophotometrically on a kinetic microliter plate reader for 5 minutes. After graphical presentation of the inhibition curves, the Ki values were determined according to the method described in Biochem. J. 55, 1955, 170-171. The inhibition of trypsin was effected analogously, but using the substrate S-2251 (H-D-Val-Leu-Lys-paranitroaniline) in 200 and 750 μM final concentration.
For the compound `N=C(N)N1CCC[C@@H](CNC(=O)[C@@H](Cc2c[nH]c3ccccc23)NS(=O)(=O)c2ccc(I)cc2)C1` [Example 17b, (R)-N-[(S)-1-Amidino-3-piperidinylmethyl]-α-(p-iodobenzenesulfonamido)indole-3-propionamide], the “q (ratio of the inhibition of trypsin to the inhibition of thrombin)” value is given as 304.

As for `N=C(N)N1CCC[C@@H](COC(=O)[C@@H](Cc2c[nH]c3ccccc23)NS(=O)(=O)c2ccc(I)cc2)C1` [Example 17c, N-(p-Iodophenylsulfonyl)-D-tryptophan (R)-1-amidino-3-piperidinylmethyl ester], the “q (ratio of the inhibition of trypsin to the inhibition of thrombin)” value was 172.

Consider `N=C(N)N1CCCC(CNC(=O)[C@@H](Cc2c[nH]c3ccccc23)NS(=O)(=O)c2ccccc2[N+](=O)[O-])C1` (mixture of isomers) [Example 14i, (R)-N-[(RS)-1-Amidino-3-piperidinylmethyl]-α-(o-nitrobenzenesulfonamido)indole-3-propionamide], for which the “q (ratio of the inhibition of trypsin to the inhibition of thrombin)” value came out at 1520.

Regarding `N=C(N)N1CCC[C@@H](CNC(=O)[C@@H](Cc2ccc([N+](=O)[O-])cc2)NS(=O)(=O)c2ccc(I)cc2)C1` [Example 17j, (R)-N-[(S)-1-Amidino-3-piperidinylmethyl]-α-(p-iodo-benzenesulfonamido)-p-nitrohydrocinnamamide], the “q (ratio of the inhibition of trypsin to the inhibition of thrombin)” value came out at 565.

In the case of `N=C(N)N1CCCC(CNC(=O)[C@@H](Cc2ccccc2)NS(=O)(=O)c2ccc3ccccc3c2)C1` (stereo partly drawn) [Example 9, (R)-N-[(RS)-1-amidino-3-piperidinylmethyl]-α-(2-naphthylsulfonamido)hydrocinnamide], the “q (ratio of the inhibition of trypsin to the inhibition of thrombin)” value stood at 1250.

With `N=C(N)N1CCCC(CNC(=O)[C@@H](CN2C(=O)C(=O)c3ccccc32)NS(=O)(=O)c2ccc3ccccc3c2)C1` (stereo partly shown) [Example 8], the “q (ratio of the inhibition of trypsin to the inhibition of thrombin)” value is 2350.

Consider `N=C(N)N1CCCC(CNC(=O)[C@@H](Cc2ccccc2[N+](=O)[O-])NS(=O)(=O)c2ccc3ccccc3c2)C1` (mixture of isomers) [Example 13a, (R)-N-[(RS)-1-Amidino-3-piperidinylmethyl]-α-(2-naphthylsulfonamido)-o-nitrohydrocinnamamide], for which the “q (ratio of the inhibition of trypsin to the inhibition of thrombin)” value is reported as 1400.
